Data taken from publication PMC12170509.
Results are given in words; binding and its absence hold for the method and conditions named. Binding seen in cells or lysates may run through a third protein. A result given as binding can be weak or reduced; the word gives no strength. For some of these results: Tags and fused reporters may be left off the sequences shown. Blank lines part the entries; values can stand above or below the molecule they belong to.

Protein sequences, listed by entry. Tags and fused reporters are not part of them. Lines headed by an entry give the natural chain unless they say otherwise; changes in a name come on top. Residues count along the entry.
UniProt Q9QZM9: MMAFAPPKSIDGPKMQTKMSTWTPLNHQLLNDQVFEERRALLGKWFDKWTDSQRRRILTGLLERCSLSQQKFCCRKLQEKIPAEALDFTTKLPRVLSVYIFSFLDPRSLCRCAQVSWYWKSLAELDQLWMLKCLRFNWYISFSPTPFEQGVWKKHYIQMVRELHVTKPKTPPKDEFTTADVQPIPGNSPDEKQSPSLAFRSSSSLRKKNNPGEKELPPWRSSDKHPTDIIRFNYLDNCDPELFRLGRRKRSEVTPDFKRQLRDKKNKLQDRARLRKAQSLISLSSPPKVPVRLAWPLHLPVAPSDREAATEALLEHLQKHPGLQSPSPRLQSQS
UniProt P63208: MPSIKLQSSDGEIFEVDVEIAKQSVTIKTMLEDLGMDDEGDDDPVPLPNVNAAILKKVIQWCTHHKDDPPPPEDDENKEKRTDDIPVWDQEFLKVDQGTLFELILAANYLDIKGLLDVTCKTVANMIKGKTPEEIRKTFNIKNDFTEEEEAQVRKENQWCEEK
UniProt Q04207: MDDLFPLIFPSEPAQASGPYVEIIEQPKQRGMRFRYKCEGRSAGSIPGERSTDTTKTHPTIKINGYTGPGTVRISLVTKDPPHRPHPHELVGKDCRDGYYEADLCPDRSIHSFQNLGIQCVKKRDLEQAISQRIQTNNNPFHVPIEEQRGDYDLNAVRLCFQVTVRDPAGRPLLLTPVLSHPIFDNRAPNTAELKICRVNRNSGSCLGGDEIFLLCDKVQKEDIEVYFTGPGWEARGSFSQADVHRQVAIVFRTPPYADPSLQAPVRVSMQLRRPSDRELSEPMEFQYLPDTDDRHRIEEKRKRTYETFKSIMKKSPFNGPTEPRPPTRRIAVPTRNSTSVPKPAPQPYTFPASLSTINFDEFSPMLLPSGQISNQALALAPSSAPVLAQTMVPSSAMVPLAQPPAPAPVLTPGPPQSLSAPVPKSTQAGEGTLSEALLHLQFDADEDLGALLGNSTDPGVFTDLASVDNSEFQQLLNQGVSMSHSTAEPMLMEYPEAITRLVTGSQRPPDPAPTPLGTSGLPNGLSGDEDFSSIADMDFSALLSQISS
UniProt P25799, residues 1-431: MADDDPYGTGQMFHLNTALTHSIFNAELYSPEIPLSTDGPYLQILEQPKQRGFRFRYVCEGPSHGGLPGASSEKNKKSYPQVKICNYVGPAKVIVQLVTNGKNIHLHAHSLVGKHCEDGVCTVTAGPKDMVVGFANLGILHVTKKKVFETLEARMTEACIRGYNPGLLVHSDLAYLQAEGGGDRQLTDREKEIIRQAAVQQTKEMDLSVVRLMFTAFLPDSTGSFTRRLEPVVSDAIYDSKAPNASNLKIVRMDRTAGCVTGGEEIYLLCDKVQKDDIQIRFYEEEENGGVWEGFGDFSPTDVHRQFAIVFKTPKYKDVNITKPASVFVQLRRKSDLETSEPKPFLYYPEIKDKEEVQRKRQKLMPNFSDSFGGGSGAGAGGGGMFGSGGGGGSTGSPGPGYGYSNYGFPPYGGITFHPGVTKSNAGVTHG

Columns and labels:
[1] = biological target: c-Myc-tagged Fbxo16 (mouse) (UniProt Q9QZM9); assay: co-IP; HEK293T transfected with c-Myc-Fbxo16; lysis in 50 mM Tris pH 8.0, 0.5% NP-40, 5 mM EDTA, 50 mM NaCl, 50 mM sodium fluoride; IP with anti-c-Myc; immunoblot with anti-Skp1
[2] = biological target: c-Myc-tagged Fbxo16 (mouse) (UniProt Q9QZM9); assay: co-IP; HEK293T transfected with the c-Myc-tagged bait (and Flag-tagged partner where given); whole cell extract in RIPA buffer; IP with anti-c-Myc agarose overnight, four washes; immunoblot; in some panels cells were first transfected with control siRNA or siRNA against Cullin 1, Skp1 or Fbxo proteins

Molecule: Skp1 (from UniProt P63208 1-163)
- binding [1]: binds

B1: Flag-tagged PDLIM2 (protein, UniProt Q8R1G6 1-349)
chain: MALTVDVAGPAPWGFRISGGRDFHTPIIVTKVTERGKAEAADLRPGDIIVAINGQSAENMLHAEAQSKIRQSASPLRLQLDRSQTASPGQTNGEGSLEVLATRFQGSLRTHRDSQSSQRSACFSPVSLSPRPCSPFSTPPPTSPVALSKEDMIGCSFQSLTHSPGLAAAHHLTYPGHPTSQQAGHSSPSDSAVRVLLHSPGRPSSPRFSSLDLEEDSEVFKMLQENRQGRAAPRQSSSFRLLQEALEAEERGGTPAFVPSSLSSQASLPTSRALATPPKLHTCEKCSVNISNQAVRIQEGRYRHPGCYTCADCGLNLKMRGHFWVGNELYCEKHARQRYSMPGTLNSRA
- binding [2]: binds

Further lines, results first:

- binding [2]: binds
Molecule: Flag-tagged p65 (from UniProt Q04207 1-549)

- binding [2]: no binding
Molecule: Flag-tagged murine p50 (from UniProt P25799 1-431)
